Key:
human subjects [1] = assay: Human olfactory psychophysics: detection thresholds (single staircase method); format: in vivo; conditions: two sessions at least four days apart
Procedure: Human olfactory psychophysics. All human subjects gave informed consent to participate in this study and were tested in a well-ventilated room. Normal human subjects (n=412; 218 female, 194 male; median age 34, age range 19-75) were pre-screened to exclude pregnant women and those with medical conditions causing general impairment of the sense of smell. All subjects completed two replicates of the test separated by at least 4 days. Odors were presented in amber vials as previously described (see, e.g., Keller, A., et al., Nat Neurosci 7, 337-338 (2004); herein incorporated by reference in its entirety) using bar-coded symbols to ensure that subjects were blind to the identity of all odors. […] Thresholds were calculated using the single staircase method with seven reversals (see, e.g., Doty, R. L., et al., Chem Senses 20, 645-656 (1995); Doty, R. L. & Laing, D. G. in Handbook of Olfaction and Gustation (ed. Doty, R. L.) pp. 203-228 (Marcel Dekker, Inc., New York, 2003); each of which are herein incorporated by reference in their entireties). […]
Threasholding. Detection thresholds (FIG. 3c and FIG. 5b-c) were determined using the “Single Staircase Threshold Detection Method” (see, e.g., Buck, L., et al., Cell 65, 175-187 (1991); Menashe, I., et al., Nat Genet. 34, 143-144 (2003); each of which are herein incorporated by reference in their entireties). […]

human subjects [2] = assay: Human olfactory psychophysics: odor profiling with 146 descriptors; format: in vivo; conditions: out of 146 descriptors
Procedure: Human olfactory psychophysics. All human subjects gave informed consent to participate in this study and were tested in a well-ventilated room. Normal human subjects (n=412; 218 female, 194 male; median age 34, age range 19-75) were pre-screened to exclude pregnant women and those with medical conditions causing general impairment of the sense of smell. All subjects completed two replicates of the test separated by at least 4 days. Odors were presented in amber vials as previously described (see, e.g., Keller, A., et al., Nat Neurosci 7, 337-338 (2004); herein incorporated by reference in its entirety) using bar-coded symbols to ensure that subjects were blind to the identity of all odors. The intensity and valence of 66 odors at two concentrations (“high” and “low”) and two solvents was rated using a 7-point scale. Thresholds were calculated using the single staircase method with seven reversals (see, e.g., Doty, R. L., et al., Chem Senses 20, 645-656 (1995); Doty, R. L. & Laing, D. G. in Handbook of Olfaction and Gustation (ed. Doty, R. L.) pp. 203-228 (Marcel Dekker, Inc., New York, 2003); each of which are herein incorporated by reference in their entireties). Threshold tests included both steroids as binary dilutions from […] (binary dilution 6) to 1: 134,217,728 (binary dilution 27). […]
Assigning descriptors to odors. Subjects assessed the quality of six odors using an odor profiling method that has shown to produce stable profiles of odorants. […] Odor profiling typically took five minutes per odorant and was performed as a computer-controlled selftest in which the subject's responses were directly recorded. […] The descriptors used to describe the other four odors (vanillin, pentadecalactone, androstenone, and propylene glycol) were evaluated. […]

Row | SMILES | average difference between the thresholds determined on the two days (human subjects [1]) | number of descriptors used in more than 100% of the sessions (human subjects [2])
1 | C[C@@]12C=CC[C@H]1[C@@H]1CCC3=CC(=O)CC[C@]3(C)[C@H]1CC2 [androstadienone, androsta-4,16-dien-3-one] | five | –
2 | C[C@]12CCC(=O)C[C@@H]1CC[C@@H]1[C@@H]2CC[C@]2(C)C=CC[C@@H]12 [androstenone, 5α-androst-16-en-3-one] | three | 21/146
3 | O=C1CCCCCCCCCCCCCCO1 [pentadecalactone] | – | 19/146
4 | COc1cc(C=O)ccc1O [vanillin] | – | 23/146

Source: patent US8298781B2, “Compositions and methods for characterizing and regulating olfactory sensation” (Duke University, priority 2007, dated 2012)
